Results are given in words; binding and its absence hold for the method and conditions named. In cells and extracts the contact can be indirect. Some binding calls cover weakened binding; strength is not graded here. Tags and fused reporters may be left off the sequences shown.

The target in this test is T1, ANKRD31 p.Gln329* truncated protein, 3X FLAG tagged (human) (UniProt Q8N7Z5).
T1 sequence: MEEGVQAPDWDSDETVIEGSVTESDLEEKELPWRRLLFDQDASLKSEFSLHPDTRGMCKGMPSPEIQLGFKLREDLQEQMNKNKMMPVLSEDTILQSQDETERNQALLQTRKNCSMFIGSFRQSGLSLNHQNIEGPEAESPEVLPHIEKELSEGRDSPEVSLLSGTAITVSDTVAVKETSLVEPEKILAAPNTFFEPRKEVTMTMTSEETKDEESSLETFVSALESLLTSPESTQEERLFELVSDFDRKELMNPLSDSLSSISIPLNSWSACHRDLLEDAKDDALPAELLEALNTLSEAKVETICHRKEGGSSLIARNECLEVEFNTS
The test can be described thus: co-IP; ANKRD31 (3X FLAG) and REC114 (HA) plasmids cotransfected into HEK293 cells for 48 hours; NP-40 lysis buffer; 0.5 mg protein with anti-FLAG M2 magnetic beads at room temperature for 3 hours; western blot.

B1: REC114 with HA tag at C-terminus (protein, UniProt Q7Z4M0 1-266)
chain: MAEAGKVPLSLGLTGGEAAEWPLQRYARCIPSNTRDPPGPCLEAGTAPCPTWKVFDSNEESGYLVLTIVISGHFFIFQGQTLLEGFSLIGSKDWLKIVRRVDCLLFGTTIKDKSRLFRVQFSGESKEQALEHCCSCVQKLAQYITVQVPDGNIQELQLIPGPPRATESQGKDSAKSVPRQPGSHQHSEQQQVCVTAGTGAPDGRTSLTQLAQTLLASEELPHVYEQSAWGAEELGPFLRLCLMDQNFPAFVEEVEKELKKLAGLRN
Regarding B1, the binding result is given as “binds”.

The values above are taken from paper PMC8629753.
